Test system: GUMC-403
Test: viability at highest tested concentration (max response) relative to DMSO (% of DMSO control); higher = less cytotoxic
Conditions: library / dose series: MIPE library, 11-point 1:3 dilution; top concentration 46.1 µM; 48 h
Method in brief: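 GUMC-403 papilloma cells, derived from a patient and expanded by conditional reprogramming, were dispensed at 700/well into 1536-well plates in 5 μL F + Y medium. A pin tool delivered 23 nL of each compound across an 11-point 1:3 dilution series for 48 h. CellTiter-Glo luminescence, read on a ViewLux, was normalised so that vehicle wells equalled 100% and empty wells 0%. Values report viability at the highest tested concentration relative to vehicle control.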

SMILES	viability
CC1=C(C=CC=C1)N2C(=O)C3=C(C=CC=C3C)\N=C2\C[N]4N=C(C5=CC(=CC=C5)O)C6=C(N)N=CN=C46	109
COC(=O)[C@H](CCCNC(=N)N)N[S+](=O)([O-])c1ccc(C)cc1	117
